Results are given in words; binding and its absence hold for the method and conditions named. In cells and extracts the contact can be indirect. Here binding means that the protein was enriched with, or labelled near, the bait; the list need not be complete. Blank lines part the entries; values can stand above or below the molecule they belong to.
What was measured:
[1] = target: T1, DCP1b (human (endogenous in HCT116)) (UniProt Q8IZD4); assay: affinity purification with mass spectrometry; endogenous DCP1b immunoprecipitated from HCT116 lysates (270 ug protein; control and DCP1a KO polyclonal pool), IgG control, LC/MS/MS, two replicas
T1 sequence: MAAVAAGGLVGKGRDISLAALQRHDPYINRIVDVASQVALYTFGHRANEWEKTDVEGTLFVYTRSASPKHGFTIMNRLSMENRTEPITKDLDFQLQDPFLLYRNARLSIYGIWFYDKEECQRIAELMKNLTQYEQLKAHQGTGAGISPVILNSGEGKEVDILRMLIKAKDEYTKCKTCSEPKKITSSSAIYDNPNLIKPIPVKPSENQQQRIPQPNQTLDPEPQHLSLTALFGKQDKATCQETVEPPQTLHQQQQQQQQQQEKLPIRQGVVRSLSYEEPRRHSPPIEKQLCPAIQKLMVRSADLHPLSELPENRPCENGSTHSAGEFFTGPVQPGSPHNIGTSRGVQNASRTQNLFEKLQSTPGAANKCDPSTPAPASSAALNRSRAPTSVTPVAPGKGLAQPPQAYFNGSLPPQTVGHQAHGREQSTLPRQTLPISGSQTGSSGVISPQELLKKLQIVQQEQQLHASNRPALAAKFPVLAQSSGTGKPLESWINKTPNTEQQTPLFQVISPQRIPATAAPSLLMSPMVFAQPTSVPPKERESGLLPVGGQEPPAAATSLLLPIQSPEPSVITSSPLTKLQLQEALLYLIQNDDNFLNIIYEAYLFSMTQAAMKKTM

Chains of the proteins cited; added tags and fusions are not shown.
UniProt P26196: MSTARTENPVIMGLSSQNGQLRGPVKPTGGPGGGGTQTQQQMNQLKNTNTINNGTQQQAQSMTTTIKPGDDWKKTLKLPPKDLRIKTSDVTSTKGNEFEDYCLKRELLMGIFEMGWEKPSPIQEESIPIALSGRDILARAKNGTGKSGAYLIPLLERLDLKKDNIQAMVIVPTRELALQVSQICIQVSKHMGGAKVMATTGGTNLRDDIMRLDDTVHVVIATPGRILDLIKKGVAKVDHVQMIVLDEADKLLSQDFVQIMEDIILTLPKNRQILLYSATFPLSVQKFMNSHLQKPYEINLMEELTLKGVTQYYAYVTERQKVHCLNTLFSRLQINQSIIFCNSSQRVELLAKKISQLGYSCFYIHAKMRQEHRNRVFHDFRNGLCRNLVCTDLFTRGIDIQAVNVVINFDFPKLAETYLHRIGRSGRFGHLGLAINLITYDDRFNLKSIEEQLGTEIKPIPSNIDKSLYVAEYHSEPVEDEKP
UniProt Q96F86: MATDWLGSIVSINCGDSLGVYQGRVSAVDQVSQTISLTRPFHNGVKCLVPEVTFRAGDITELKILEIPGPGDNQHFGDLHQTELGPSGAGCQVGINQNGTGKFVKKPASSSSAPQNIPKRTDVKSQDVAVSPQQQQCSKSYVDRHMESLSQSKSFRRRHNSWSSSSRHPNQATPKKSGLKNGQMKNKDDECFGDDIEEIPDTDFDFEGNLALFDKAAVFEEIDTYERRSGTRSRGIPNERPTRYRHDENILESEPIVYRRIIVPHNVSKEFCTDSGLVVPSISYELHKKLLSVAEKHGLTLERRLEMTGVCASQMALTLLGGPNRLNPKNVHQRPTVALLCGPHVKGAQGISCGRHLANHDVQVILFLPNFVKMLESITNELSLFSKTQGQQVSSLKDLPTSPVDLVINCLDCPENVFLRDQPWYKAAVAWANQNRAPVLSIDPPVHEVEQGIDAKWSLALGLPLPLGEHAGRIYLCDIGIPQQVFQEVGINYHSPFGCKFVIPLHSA

[2] = target: DDX6 (human (endogenous in HCT116)) (UniProt P26196); assay: affinity purification with mass spectrometry; endogenous DDX6 immunoprecipitated from HCT116 lysates (control, DCP1a KO, DCP1b KO), IgG control, LC/MS/MS, three replicas
[3] = target: T2, DCP1a (human (endogenous in HCT116)) (UniProt Q9NPI6); assay: affinity purification with mass spectrometry; endogenous DCP1a immunoprecipitated from HCT116 lysates (270 ug protein; control and DCP1b KO cells), IgG control, LC/MS/MS, two replicas
T2 sequence: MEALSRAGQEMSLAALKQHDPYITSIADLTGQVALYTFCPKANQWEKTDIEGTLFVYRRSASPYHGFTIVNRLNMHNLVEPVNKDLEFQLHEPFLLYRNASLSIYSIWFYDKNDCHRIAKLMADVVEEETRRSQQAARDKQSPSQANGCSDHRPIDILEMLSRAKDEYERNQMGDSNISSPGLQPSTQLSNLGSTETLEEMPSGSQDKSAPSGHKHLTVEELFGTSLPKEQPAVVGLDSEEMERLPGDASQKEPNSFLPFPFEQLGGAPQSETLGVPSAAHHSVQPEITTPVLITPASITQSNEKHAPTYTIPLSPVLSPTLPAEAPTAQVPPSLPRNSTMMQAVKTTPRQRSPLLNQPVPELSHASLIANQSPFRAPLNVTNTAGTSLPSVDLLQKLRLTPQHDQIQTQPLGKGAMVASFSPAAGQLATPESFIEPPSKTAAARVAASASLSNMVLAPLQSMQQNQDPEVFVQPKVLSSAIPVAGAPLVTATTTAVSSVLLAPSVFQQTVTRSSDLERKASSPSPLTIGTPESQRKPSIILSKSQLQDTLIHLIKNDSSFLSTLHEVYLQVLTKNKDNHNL

binding [1]: binds
Molecule: SLIRP (human (endogenous in HCT116))

binding [1]: binds | binding [2]: binds | binding [3]: binds
Molecule: EDC3 (from UniProt Q96F86 1-508)

binding [1]: binds | binding [3]: binds
B1: TERF2IP (protein, UniProt Q9NYB0 1-399)
chain: MAEAMDLGKDPNGPTHSSTLFVRDDGSSMSFYVRPSPAKRRLSTLILHGGGTVCRVQEPGAVLLAQPGEALAEASGDFISTQYILDCVERNERLELEAYRLGPASAADTGSEAKPGALAEGAAEPEPQRHAGRIAFTDADDVAILTYVKENARSPSSVTGNALWKAMEKSSLTQHSWQSLKDRYLKHLRGQEHKYLLGDAPVSPSSQKLKRKAEEDPEAADSGEPQNKRTPDLPEEEYVKEEIQENEEAVKKMLVEATREFEEVVVDESPPDFEIHITMCDDDPPTPEEDSETQPDEEEEEEEEKVSQPEVGAAIKIIRQLMEKFNLDLSTVTQAFLKNSGELEATSAFLASGQRADGYPIWSRQDDIDLQKDDEDTREALVKKFGAQNVARRIEFRKK

binding [2]: binds | binding [3]: binds
B2: DCP1b (protein, UniProt Q8IZD4 1-617)
chain: T1 sequence
